Patent US8062607B2, “Lens care methods and kits” (Novartis AG, priority 2006, dated 2011)

Test: Staining of contact lenses soaked in dye solutions
Conditions: all tested lenses; dye solution in Aquify MPS or PBS

Compound: CN(C)c1ccc(C(=C2C=CC(=[N+](C)C)C=C2)c2ccccc2)cc1 [Malachite Green]
- staining of lenses: do not stain any tested lenses

Some compounds share one wording; it may come from a single statement.
